Measured values taken from article PMC4894603.
No constants are given. Whether binding was seen depends on the method and setting. In cells and extracts the contact can be indirect. Some results given as binding are weak or reduced against the parent protein; the word gives no strength.

Biological target: AGIA-RelA (human), Q04206
Assay: co-IP; lysate of AGIA-RelA transfected HEK293T cells (150 mM NaCl, 25 mM Tris-HCl pH 7.5, 1 mM EDTA, 1% Triton X-100) with anti-AGIA antibody sepharose, 4°C overnight; blot with IκBα specific antibody; control with protein G sepharose and normal rabbit IgG
Details: remark: other sources report otherwise

B1: IκBα, P25963 1-317 (protein)
chain: MFQAAERPQEWAMEGPRDGLKKERLLDDRHDSGLDSMKDEEYEQMVKELQEIRLEPQEVPRGSEPWKQQLTEDGDSFLHLAIIHEEKALTMEVIRQVKGDLAFLNFQNNLQQTPLHLAVITNQPEIAEALLGAGCDPELRDFRGNTPLHLACEQGCLASVGVLTQSCTTPHLHSILKATNYNGHTCLHLASIHGYLGIVELLVSLGADVNAQEPCNGRTALHLAVDLQNPDLVSLLLKCGADVNRVTYQGYSPYQLTWGRPSTRIQQQLGQLTLENLQMLPESEDEESYDTESEFTEFTEDELPYDDCVFGGQRLTL
  binding: binds
